Source: publication PMC6917645
Results are given in words; binding and its absence hold for the method and conditions named. In cells and extracts the contact can be indirect. Some results given as binding are weak or reduced against the parent protein; the word gives no strength. Where a sequence is shown, tags or fusion partners need not be part of it.

Sequences of proteins named here, by UniProt entry; tags and fusion partners are left off.
UniProt P51617: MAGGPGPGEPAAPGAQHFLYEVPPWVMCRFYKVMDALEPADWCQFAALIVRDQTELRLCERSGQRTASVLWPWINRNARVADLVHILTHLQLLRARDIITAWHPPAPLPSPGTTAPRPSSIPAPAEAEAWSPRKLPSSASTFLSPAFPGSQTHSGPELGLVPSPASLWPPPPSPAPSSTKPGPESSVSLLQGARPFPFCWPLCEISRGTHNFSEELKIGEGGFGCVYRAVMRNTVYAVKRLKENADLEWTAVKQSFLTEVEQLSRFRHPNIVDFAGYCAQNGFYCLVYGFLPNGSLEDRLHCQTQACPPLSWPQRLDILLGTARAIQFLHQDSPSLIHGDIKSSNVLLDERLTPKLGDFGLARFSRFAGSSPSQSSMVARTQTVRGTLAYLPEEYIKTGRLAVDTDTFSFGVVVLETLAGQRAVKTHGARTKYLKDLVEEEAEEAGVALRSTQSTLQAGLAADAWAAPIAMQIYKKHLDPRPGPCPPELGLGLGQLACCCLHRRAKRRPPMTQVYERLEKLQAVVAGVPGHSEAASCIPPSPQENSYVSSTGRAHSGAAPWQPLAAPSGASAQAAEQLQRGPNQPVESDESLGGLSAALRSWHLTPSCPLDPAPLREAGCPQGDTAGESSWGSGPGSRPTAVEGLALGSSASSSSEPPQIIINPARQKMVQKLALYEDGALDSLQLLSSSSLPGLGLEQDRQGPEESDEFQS

Target: T1, Viperin-Flag (UniProt Q8WXG1)
T1 sequence: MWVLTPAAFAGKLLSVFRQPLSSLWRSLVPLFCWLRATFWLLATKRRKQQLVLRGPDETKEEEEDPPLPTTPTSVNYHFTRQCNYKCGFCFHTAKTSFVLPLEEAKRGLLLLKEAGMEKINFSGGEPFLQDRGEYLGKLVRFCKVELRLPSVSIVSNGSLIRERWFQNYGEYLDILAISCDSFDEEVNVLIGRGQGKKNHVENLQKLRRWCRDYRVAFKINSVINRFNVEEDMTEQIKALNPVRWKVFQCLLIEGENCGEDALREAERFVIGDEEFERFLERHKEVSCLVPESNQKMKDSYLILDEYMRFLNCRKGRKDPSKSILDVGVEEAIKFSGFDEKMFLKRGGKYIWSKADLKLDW
Assay: co-IP; HEK293T co-transfected for 24 h, RIPA lysate; IP with mouse anti-Flag or anti-Myc mAb (or control mouse IgG) and protein A/G PLUS-Agarose at 4°C overnight; washes with lysis buffer with 500 mM NaCl; immunoblot; some samples co-expressed gD-EYFP, EYFP control or Viperin-Flag

For IRAK1-HA (from UniProt P51617 1-712), which binding is on record?
The binding was “binds”.
